Reference: patent US20240368668A1, “SUBSTRATES AND BIOMARKERS OF ADAMTS7” (The Broad Institute, Inc., priority 2021, published 2024)

Key:
mouse ADAMTS7 [1] = experiment: TMT10 TAILS N-terminomics, HUVEC experiment (process replicates, trypsin/AspN digest); type: cell-based, human; conditions: for ATS7_HUVEC_TAILS_frxns_mATS7inDB_AspGluN.total Intensity: HUVEC TAILS experiment, total MS intensity of the N-terminal (neo-N-terminal) peptide identified by TAILS_id; for HUVEC TAILS.total Intensity: HUVEC experiment, total intensity of the N-terminal (TAILS) peptide
Excerpt: ADAMTS7 Expression, Cell Culture and Preparation of the Secreted Proteins—Full-length mouse Adamts7 1-1857 (Uniprot Q68SA9, WT or E373Q catalytic mutant) with a carboxyl terminal 3xFLAG tag was used to generate custom adenoviruses as previously described. Adeno-CMV-Luciferase (Ad-Luc) from Vector Biolabs was used as a negative control. Human Coronary Artery Smooth Muscle Cells (HCA-SMC) were obtained from Lonza and expanded in Lonza SmGM-2 media in 15 cm tissue culture plates. Twenty-four hours before media collection, near confluent plates were transduced with 50 MOI adenovirus and switched to Lonza Basal SM media with volumes of 20 ml per 15 cm plate. Expression of the Flag tagged ADAMTS7 was confirmed from the media using western blot and detected using the anti-Flag M2-HRP antibody (Sigma, A8592). Collected media was processed by adding protease inhibitors (1 mM EDTA and 1 mM PMSF) and clarified by 500 g×5 min spin at 4 C to pellet cell debris. Cell media supernatants were then passed through a 0.22 um filter and kept chilled. Processed media was then concentrated 50-100× using 3 kDa Centricon Plus-70 filter unit, spun at 3,500 g×60 min at 4 C. Approximately 10% of the processed, concentrated media was set aside for total secretome proteolytic analysis. The remaining 90% of the processed, concentrated media was buffer exchanged into 50 mM HEPES pH 8.0, 150 mM NaCl (2×50 ml) using the 3 kDa Centricon Plus-70 filter unit and concentrated to >2 mg/ml to serve as input for the TAILS experiment. Secretome and TAILS input samples were stored at −80° C.
For the first experiment, referred to as SMC1, 120 ml of media from 6×15 cm dishes was pooled from each condition (Luc, WT, EQ) and processed to produce three separate inputs for the TAILS experiment. Luc, WT and EQ inputs from the SMC1 experiment were each divided into triplicate 400 ug samples to generate technical replicate TAILS data. For the second experiment, referred to as SMC2, media was processed separately in triplicate for each condition (Luc1, Luc2, Luc3, WT1, WT2, WT3, EQ1, EQ2, EQ3) using 60 ml of media from 3×15 cm dishes for each process replicate. Inputs from the SMC2 experiment used process replicates of 300 ug each to generate TAILS data. The third experiment used input from cultured Human umbilical vein endothelial cells (HUVEC) from Lifeline Cell Technology grown in VascuLife Media and transduced in Lifeline Basal EC (+bFGF2 10 ng/ml). The HUVEC experiment used the same strategy as the SMC2 experiment, with 40 ml of media from 2×15 cm dishes for each process replicate and used 200 ug each to generate TAILS data. Inputs for process replicate experiments were restricted to the lowest concentration from the 9 parallel samples for SMC2 or HUVEC.
TMT10 isotopic labeling and negative selection of non-labeled peptides-Sample preparation was performed based on the TAILS protocol from the Overall lab with some modifications. From a single experiment, nine parallel protein samples in 50 mM HEPES pH 8.0, 150 mM NaCl were separately denatured with guanidinium chloride (Sigma, G4505) to reach a final concentration of 2.5M guanidinium chloride and 250 mM HEPES and incubated at 65° C. for 15 min. Reduction was achieved through addition of tris(2-carboxylethyl) phosphine (TCEP) at a final concentration of […] and incubated at 65° C. for 45 min. Alkylation reaction was performed with addition of iodoacetamide (IAA, Sigma, A3221) to a final concentration of 10 mM IAA for 15 min at room temperature in the dark. Following denaturation, reduction and alkylation steps, ten percent of each of the nine parallel protein samples was removed and combined to serve as a pooled reference. Isobaric tags were added to free amine groups using the TMT10plex Isobaric Mass Tagging Kit (ThermoFisher, 90113) with TMT channels randomly assigned to the nine samples and TMT 131 assigned to the pooled reference. […]

mouse ADAMTS7 [2] = experiment: TMT10 TAILS N-terminomics, SMC1 experiment (Ad-mADAMTS7 WT vs EQ vs Luc, technical replicates, trypsin digest); type: cell-based; conditions: for SMC1 TAILS.total Intensity: TAILS HC Overlap, total intensity of the peptide; for TAILS_SMC_Scaleup_fxns_mATS7i: TAILS N-terminal peptide signal, SMC scale-up fractions, mouse ADAMTS7, label = TAILS_id (gene symbol_StartAA)
In short: (§1)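 Full-length mouse ADAMTS7 (WT or E373Q mutant, C-terminal 3xFLAG) or luciferase was transduced via adenovirus, 50 MOI, into HCA-SMC (SMC1, SMC2) or HUVEC. SMC1: pooled media, technical triplicates 400 ug; SMC2: process triplicates 300 ug; HUVEC: process triplicates 200 ug, bFGF2 10 ng/ml.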

mouse ADAMTS7 [3] = experiment: TMT10 TAILS N-terminomics, SMC2 experiment (process replicates, trypsin/AspN digest); type: cell-based; conditions: for SMC2 TAILS.total Intensity: SMC2 experiment, total intensity of the N-terminal (TAILS) peptide
In short: as §1

[4] = total intensity of the N-terminal peptide spectra, SMC rd2 TAILS fractions, AspN/GluC search
[5] = SMC rd2 TAILS, AspGluN search, total spectral intensity of the N-terminal peptide (TAILS_id = gene_StartAA cleavage site)

Row | Substance | ATS7_HUVEC_TAILS_frxns_mATS7inDB_AspGluN.total Intensity (mouse ADAMTS7 [1]) | HUVEC TAILS.total Intensity (mouse ADAMTS7 [1]) | SMC1 TAILS.total Intensity (mouse ADAMTS7 [2]) | TAILS_SMC_Scaleup_fxns_mATS7i (mouse ADAMTS7 [2]) | SMC2 TAILS.total Intensity (mouse ADAMTS7 [3]) | ATS7_SMC_rd2_TAILS_frxns_matS7inDB_AspGluN_retry.totalIntensity (mouse ADAMTS7 [3]; [4]) | ATS7_SMC_rd2_TAILS_frxns_matS7inDB_AspGluN_retry.totalIntensity (mouse ADAMTS7 [3]; [5]) | ATS7_SMC_rd2_TAILS_frxns_matS7inDB_AspGluN_retry.totalIntensity (mouse ADAMTS7 [3]; SMC rd2 TAILS, AspGluN digest, total MS intensity of the N-terminal peptide at the given StartAA)
1 | AEBP1_37 (FLEGFLSELEPEPR; listed as Homo sapiens) | 5.26E+06 | 5.26E+06 | 4.54E+07 | 4.54E+07 | 8.64E+07 | 8.64E+07 | – | –
2 | COL18A1_1505 (LQPPVVQLHDSNPYPR; listed as Homo sapiens) | 1.34E+11 | 1.34E+11 | 1.68E+09 | 1.68E+09 | 1.11E+10 | 1.11E+10 | – | –
3 | EFEMP1_124 (AVAGPEMQTGR; listed as Homo sapiens) | 2.92E+11 | 2.92E+11 | 3.19E+09 | 3.19E+09 | 2.58E+10 | 2.58E+10 | – | –
4 | EFEMP1_125 (VAGPEMQTGR; listed as Homo sapiens) | 9.33E+10 | 9.33E+10 | 2.03E+09 | 2.03E+09 | 7.46E+09 | 7.46E+09 | – | –
5 | FBN1_29 (LEAGNVKETR; listed as Homo sapiens) | 1.85E+09 | 1.85E+09 | 1.26E+10 | 1.26E+10 | 2.40E+10 | 2.40E+10 | – | –
6 | FLNA_1285 (LTQTGGPHVKAR; listed as Homo sapiens) | 2.92E+09 | 2.92E+09 | 5.65E+08 | 5.65E+08 | 1.38E+09 | 1.38E+09 | – | –
7 | LTBP2_502 (LVENSVETRPPPWLPASPGHSLW; listed as Homo sapiens) | 3.30E+07 | 3.30E+07 | – | – | 2.73E+08 | – | 2.73E+08 | –
8 | LTBP3_208 (FLVPLGPGQISA; listed as Homo sapiens) | 4.31E+07 | 4.31E+07 | – | – | 1.77E+07 | – | 1.77E+07 | –
9 | NID1_360 (FHQQHPQVI; listed as Homo sapiens) | 5.26E+08 | 5.26E+08 | – | – | 7.78E+09 | – | 7.78E+09 | –
10 | SPOCK1_27 (LAGGAGPNHGNFL; listed as Homo sapiens) | 1.92E+09 | 1.92E+09 | – | – | 5.00E+08 | – | – | 5.00E+08
